# Results from one PubChem assay

Data taken from PubChem BioAssay AID1053133, deposited by Broad Institute (2014).

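Vaccinia-infected cells with a two-color viral stage reporter; Venus fluorescence read on a plate reader; the cell line is not named here; timing not stated here.
The test concentration is not given here.
Percent change in Venus reporter signal; lower (more negative) values mean stronger inhibition of that viral stage.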

Values are in %.
The controls that fix the scale are not given here.
Common to all entries: measured here: Venus reporter, other viral stage.
Part of the compounds only, not a random draw; the main read-out is not listed here.

{"structure": "COc1cccc(S(=O)(=O)N2C[C@@H]3N[C@H](C2)C3c2ccc(-c3ccccc3OC)cc2)c1", "stereo": "stereo partly specified", "activity change (Venus) (%)": "-38.55"}
{"structure": "CCCN(C)C[C@H]1Oc2cc(C#CC3CCCC3)ccc2S(=O)(=O)N([C@@H](C)CO)C[C@H]1C", "activity change (Venus) (%)": "-32.67"}
{"structure": "C[C@@H]1CN([C@@H](C)CO)C(=O)c2cccc(NC(=O)c3ccc(-c4nccs4)cc3)c2O[C@@H]1CN(C)Cc1ccc(C(F)(F)F)cc1", "activity change (Venus) (%)": "-48.72"}
{"structure": "Cc1ccc(-c2ccc([C@@H]3[C@@H](CO)N4C(=O)CN(C(=O)CN5CCOCC5)C[C@H]34)cc2)cc1", "activity change (Venus) (%)": "-51"}
{"structure": "O=C(Nc1ccccc1)N1CCCCN2[C@@H](CO)[C@H](c3ccc(-c4ccccc4)cc3)[C@@H]2C1", "activity change (Venus) (%)": "-53.36"}
{"structure": "O=C(C[C@@H]1C[C@H]2c3cc(NC(=O)Nc4ccc(C(F)(F)F)cc4)ccc3O[C@H]2[C@H](CO)O1)NCc1cccnc1", "activity change (Venus) (%)": "-42.58"}
{"structure": "C[C@@H]1CCCCO[C@H](CN(C)S(=O)(=O)c2cccs2)[C@H](C)CN([C@@H](C)CO)C(=O)c2cc(NS(=O)(=O)c3ccc(F)cc3)ccc2O1", "activity change (Venus) (%)": "-32.69"}
{"structure": "C[C@@H]1CCCCO[C@H](CN(C)C(=O)C2CCCCC2)[C@H](C)CN([C@H](C)CO)C(=O)c2cc(NS(=O)(=O)c3ccc(Cl)cc3)ccc2O1", "activity change (Venus) (%)": "-48.14"}
{"structure": "O=C(Nc1cc(F)ccc1F)N1CCCCN2[C@@H](CO)[C@@H](c3ccc(-c4ccccc4)cc3)[C@@H]2C1", "activity change (Venus) (%)": "-66.99"}
{"structure": "O=C(C[C@@H]1C=C[C@H](NC(=O)CCN2CCCCC2)[C@@H](CO)O1)Nc1ccc(-c2ccccc2)cc1", "activity change (Venus) (%)": "-37.62"}
{"structure": "COc1ccc(NC(=O)N2CC(=O)N3[C@@H](CO)[C@@H](c4ccc(C#CCC5CCCC5)cc4)[C@@H]3C2)cc1", "activity change (Venus) (%)": "-41.25"}
{"structure": "CO[C@@H]1CN(C)C(=O)c2cc(NC(=O)C3CCCCC3)ccc2OC[C@@H](C)N(C(=O)Nc2ccc(C(F)(F)F)cc2)C[C@H]1C", "activity change (Venus) (%)": "-32.53"}
{"structure": "C[C@H]1CN([C@@H](C)CO)C(=O)c2cccc(NS(=O)(=O)c3ccc(Cl)cc3)c2O[C@H]1CN(C)S(=O)(=O)c1ccc(Cl)cc1", "activity change (Venus) (%)": "-34.98"}
{"structure": "C[C@@H]1CN([C@H](C)CO)S(=O)(=O)c2ccc(C#Cc3ccc(F)cc3)cc2O[C@H]1CN(C)C", "activity change (Venus) (%)": "-63.66"}
{"structure": "CCCC#Cc1ccc2c(c1)O[C@H](CN(C)Cc1cncnc1)[C@@H](C)CN([C@@H](C)CO)S2(=O)=O", "activity change (Venus) (%)": "-37.11"}
{"structure": "C[C@@H]1CN([C@H](C)CO)C(=O)c2cc(NC(=O)Nc3ccc(C(F)(F)F)cc3)ccc2O[C@@H]1CN(C)Cc1ccc(Cl)c(Cl)c1", "activity change (Venus) (%)": "-37.43"}
{"structure": "C[C@H]1CN([C@@H](C)CO)C(=O)c2cc(C#CCN(C)C)cnc2O[C@H]1CN(C)Cc1ccc(-c2ccccc2)cc1", "activity change (Venus) (%)": "-54.14"}
{"structure": "C[C@@H]1CN([C@H](C)CO)C(=O)c2cc(NS(=O)(=O)c3ccccc3)ccc2O[C@H]1CN(C)Cc1ccc(-c2ccccc2)cc1", "activity change (Venus) (%)": "-36.11"}
{"structure": "CCCC#Cc1ccc2c(c1)O[C@H](CN(C)C(=O)C1CCC1)[C@H](C)CN([C@H](C)CO)S2(=O)=O", "activity change (Venus) (%)": "-28.66"}
{"structure": "COc1ccc(S(=O)(=O)N(C)C[C@@H]2OCCCC[C@H](C)Oc3ccc(NS(=O)(=O)c4ccc(Cl)cc4)cc3C(=O)N([C@H](C)CO)C[C@@H]2C)cc1", "activity change (Venus) (%)": "-23.82"}
{"structure": "O=S(=O)(N[C@H]1CC[C@@H](CCn2cc(-c3cccc(F)c3)nn2)O[C@@H]1CO)c1ccc(Cl)cc1", "activity change (Venus) (%)": "-25.01"}
{"structure": "CCC(=O)N1CC2(CN(Cc3ccc(Cl)cc3)C2)c2c([nH]c3cc(OC)ccc23)[C@H]1CO", "activity change (Venus) (%)": "-57.34"}
{"structure": "C[C@@H]1CCCCO[C@@H](CN(C)S(=O)(=O)c2ccccc2)[C@H](C)CN([C@@H](C)CO)C(=O)c2cc(NS(=O)(=O)c3ccc(F)cc3)ccc2O1", "activity change (Venus) (%)": "-34.89"}
{"structure": "Cc1ccc(S(=O)(=O)N[C@H]2CC[C@@H](CCn3cc(C4CC4)nn3)O[C@@H]2CO)cc1", "activity change (Venus) (%)": "-31.21"}